Experimental data reported in patent US20110008369A1.
These are yes or no findings as the source states them, for the method shown. Some binding calls cover weakened binding; strength is not graded here.

Sequences of proteins named here, by UniProt entry; tags and fusion partners are left off. A change or cut given only in a name is not applied to a line headed by its entry.
UniProt Q15116: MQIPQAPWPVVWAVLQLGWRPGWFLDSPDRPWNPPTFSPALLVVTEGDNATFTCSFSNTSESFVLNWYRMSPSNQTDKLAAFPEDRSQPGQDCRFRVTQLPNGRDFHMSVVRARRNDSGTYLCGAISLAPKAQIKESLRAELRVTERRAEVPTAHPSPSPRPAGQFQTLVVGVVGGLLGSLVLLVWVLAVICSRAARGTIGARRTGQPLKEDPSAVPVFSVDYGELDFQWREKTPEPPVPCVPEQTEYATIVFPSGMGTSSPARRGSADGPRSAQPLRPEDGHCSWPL

Target: human PD-1 (Programmed Cell Death 1), expressed on cells (human) (UniProt Q15116)
Experiment: cell binding to activated human CD4+ cells

B1: mAb 1.8A10 (antibody, V domains shown)
VH: EVQLVESGGGLVKPGGSLKLSCAASGFTFSNYDMSWIRQTPEKRLEWVAYISGGGGNTYYPDTLKGRFTISRDNAKNTLYLQMSSLKSEDTAMFYCVRISLTGIFDYWGQGTTLTVSS
VL: DVLMTQTPLSLPVSLGDQASISCRSSQSIVQSNGNTYLEWYLQKPGQSPKLLIYKVSNRFSGVPDRFSGSGSGTDFTLKISRVEAEDLGVYYCFQGSHVPWTFGGGTKLEIKR
Q: Which binding does the source give for B1 here?
A: Its binding is “binds”.
